Results are given in words; binding and its absence hold for the method and conditions named. Some entries that bind do so weakly or less than the wild type.
How the values were obtained:
[1] = target: Plk 323-499 (two-hybrid bait, wild-type polo box) (murine (mammalian Plk)) (UniProt Q07832); experiment: yeast two-hybrid screen
[2] = target: Plk 1-400 (two-hybrid bait) (murine (mammalian Plk)) (UniProt Q07832); experiment: yeast two-hybrid screen
[3] = target: Plk 323-499 (two-hybrid bait, wild-type polo box) (murine (mammalian Plk)) (UniProt Q07832); experiment: yeast two-hybrid screen, mouse embryo cDNA library
[4] = target: Plk 1-400 (two-hybrid bait) (murine (mammalian Plk)) (UniProt Q07832); experiment: yeast two-hybrid screen, mouse embryo cDNA library

Amino acid sequences for entries named in this document (tags omitted). A change or cut given only in a name is not applied to a line headed by its entry.
UniProt Q07832: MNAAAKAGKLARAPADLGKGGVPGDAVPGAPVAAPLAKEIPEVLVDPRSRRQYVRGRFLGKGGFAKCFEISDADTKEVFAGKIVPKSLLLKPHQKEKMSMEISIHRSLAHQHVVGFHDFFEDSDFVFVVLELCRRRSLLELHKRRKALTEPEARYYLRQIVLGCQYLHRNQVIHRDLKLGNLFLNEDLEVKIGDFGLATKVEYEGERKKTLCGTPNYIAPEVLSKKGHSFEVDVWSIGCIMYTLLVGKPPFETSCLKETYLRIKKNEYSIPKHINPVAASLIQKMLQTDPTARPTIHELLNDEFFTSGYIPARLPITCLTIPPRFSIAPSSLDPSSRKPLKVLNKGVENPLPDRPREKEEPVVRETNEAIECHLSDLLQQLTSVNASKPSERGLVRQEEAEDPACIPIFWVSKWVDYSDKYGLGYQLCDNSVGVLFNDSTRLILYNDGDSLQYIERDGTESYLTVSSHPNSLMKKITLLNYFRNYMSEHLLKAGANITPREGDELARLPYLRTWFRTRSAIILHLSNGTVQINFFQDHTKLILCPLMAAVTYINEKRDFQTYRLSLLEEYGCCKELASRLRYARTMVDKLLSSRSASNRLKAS
UniProt O35254: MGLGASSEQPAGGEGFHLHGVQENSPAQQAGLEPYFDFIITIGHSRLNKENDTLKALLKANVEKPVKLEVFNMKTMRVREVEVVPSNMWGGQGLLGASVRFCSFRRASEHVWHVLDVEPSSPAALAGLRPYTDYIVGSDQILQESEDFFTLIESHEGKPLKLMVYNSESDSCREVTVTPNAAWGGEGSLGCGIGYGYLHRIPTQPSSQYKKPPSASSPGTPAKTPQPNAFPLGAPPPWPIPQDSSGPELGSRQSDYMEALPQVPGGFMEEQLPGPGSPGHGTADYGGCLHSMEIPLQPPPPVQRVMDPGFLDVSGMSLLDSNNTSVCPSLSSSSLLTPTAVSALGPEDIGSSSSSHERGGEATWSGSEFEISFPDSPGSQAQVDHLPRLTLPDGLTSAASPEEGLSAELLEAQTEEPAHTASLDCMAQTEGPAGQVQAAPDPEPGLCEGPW

Measured: binding

GRASP65 (Golgi Reassembly Stacking Protein), amino acid residues 6-114, two-hybrid prey clone (from UniProt O35254 6-114)
binds: all assays above
